The list does not hold the whole screen: it is rich in T/C values a quarter to a half above the control, in often repeated tests (any T/C) and in doses without a T/C. Further doses and runs are listed elsewhere. T/C gives the treated animals as a percentage of the vehicle group. Some doses have a count of surviving animals in place of a T/C: the source holds a T/C of zero for them, seemingly a mark for toxic or unscored doses. Some survivor counts are full or nearly so, which does not show that the dose was tolerated: survival well below the control is almost never listed, so the zero probably covers shortened survival too. Counts of survivors are from the toxicity check (mostly the fifth day) where no day follows; animals may have died later. Schedule codes are those of the source, read here as Q, the interval in days (D) or hours (H), X, the number of doses. Additions like (4×) say how often a value occurs here. Some schedule codes hold Z or #, which are not explained here. For survival time, the PubChem record calls one and a half times the control and up active, and a quarter to a half above the control has no call in these data; cut-offs in other NCI protocols can differ.
System: L1210 leukemia ip in BDF1 mice, survival T/C
Assay: NCI In Vivo Anticancer Drug Screen. Data for tumor model L1210 Leukemia (intraperitoneal) in B6D2F1 (BDF1) mice
Conditions: T/C endpoint: mean survival time, higher T/C = longer survival
[1] = dose: 80.0 mg/kg/injection, schedule: Q01DX001 (ip), vehicle: saline
[2] = dose: 100.0 mg/kg/injection, schedule: Q01DX001 (ip), vehicle: saline
[3] = dose: 200.0 mg/kg/injection, schedule: Q01DX001 (ip), vehicle: saline
[4] = dose: 400.0 mg/kg/injection, schedule: Q01DX001 (ip), vehicle: saline
[5] = dose: 100.0 mg/kg/injection, schedule: Q01DX009 (ip), vehicle: saline
[6] = dose: 200.0 mg/kg/injection, schedule: Q04DX003 (ip), vehicle: saline
[7] = dose: 400.0 mg/kg/injection, schedule: Q04DX003 (ip), vehicle: saline
[8] = dose: 400.0 mg/kg/injection, schedule: Q04DX002 (ip), vehicle: Klucel (hydroxypropylcellulose) (HPC)
[9] = dose: 400.0 mg/kg/injection, schedule: Q01DX009 (ip), vehicle: Klucel (hydroxypropylcellulose) (HPC)
[10] = dose: 300.0 mg/kg/injection, schedule: Q01DX001 (ip), vehicle: saline
[11] = dose: 150.0 mg/kg/injection, schedule: Q01DX001 (ip), vehicle: saline

With `NNC(=O)c1cccc([N+](=O)[O-])c1` the survivor count (dose: 50.0 mg/kg/injection, schedule: Q04DX003 (ip), vehicle: Klucel (hydroxypropylcellulose) (HPC)) was 0 of 6, the survivor count (dose: 100.0 mg/kg/injection, schedule: Q04DX003 (ip), vehicle: carboxymethylcellulose (CMC)) was 1 of 6 and the survivor count (dose: 200.0 mg/kg/injection, schedule: Q04DX003 (ip), vehicle: carboxymethylcellulose (CMC)) was 0 of 6. For the same compound, the survivor count (dose: 400.0 mg/kg/injection, schedule: Q04DX003 (ip), vehicle: carboxymethylcellulose (CMC)) was 0 of 6.
With `CC1(C)N=C(N)N=C(N)N1c1cccc(OCCOc2ccc(N)cc2)c1` the survivor count [1] was 2 of 6, the survivor count [2] was 2 of 6 and the survivor count [3] was 0 of 6. The survivor count [4] was 0 of 6.
`CCN(CC)CC(O)c1ccccc1` (stereo not given) was tested, and the survivor count [5] was 1 of 6, the survivor count (dose: 100.0 mg/kg/injection, schedule: Q04DX003 (ip), vehicle: saline) was 2 of 6 and the survivor count [6] was 2 of 6. For the same compound, the survivor count [7] was 0 of 6.
For `NC(=O)C(=Cc1ccc([N+](=O)[O-])s1)C(N)=O`, the survivor count [8] was 1 of 3.
In the case of `COc1ccc(/C=C2\C(=O)OC(=O)\C2=C\c2ccc(OC)c(OC)c2)cc1OC`, the survivor count [9] is reported as 2 of 6.
For `C[n+]1ccc(C(=O)c2ccccc2)cc1`, the survivor count [10] was 0 of 6.
For `COc1cc(OC)c(/C=C/c2ccc3ccccc3[n+]2C)c(OC)c1`, the survivor count (dose: 5.0 mg/kg/injection, schedule: Q04DX003 (ip), vehicle: saline with Tween-80) was 0 of 6, the survivor count (dose: 10.0 mg/kg/injection, schedule: Q04DX003 (ip), vehicle: saline with Tween-80) was 1 of 6 and the survivor count (dose: 20.0 mg/kg/injection, schedule: Q04DX003 (ip), vehicle: saline with Tween-80) was 1 of 6.
`CC(C)OC(=O)Oc1cccc2c1C(=O)c1ccccc1C2=O` was tested, and the survivor count [9] was 6 of 6.
`NNCCc1ccccc1` was tested, and the survivor count [5] was 0 of 6, the survivor count [6] was 2 of 4 and the survivor count [7] was 0 of 4.
`C/C=C(\CC)C1(C(C)C)C(=O)NC(=O)NC1=O` was tested, and the survivor count [11] was 1 of 6 and the survivor count [10] was 0 of 6.
`O=c1c(-c2ccccc2)c(-c2ccccc2)c1=O` was tested, and the survivor count [10] was 2 of 6.
`Cc1ccccc1-n1c(C)nc2ccccc2c1=O` was tested, and the survivor count [9] was 2 of 6.
`CC(/C=C/c1ccco1)=N\O` was tested, and the survivor count (dose: 100.0 mg/kg/injection, schedule: Q01DX009 (ip), vehicle: other) was 0 of 3 and the survivor count (dose: 200.0 mg/kg/injection, schedule: Q01DX009 (ip), vehicle: other) was 0 of 3.
In the case of `N#Cc1c[nH]n2c(=S)ncnc12`, the survivor count (dose: 400.0 mg/kg/injection, schedule: Q01DX009 (ip), vehicle: saline with Tween-80) is reported as 1 of 6.
In the case of `O=C1C2CC3C(CC2C(=O)[N]1[Sn]([c]1ccccc1)([c]1ccccc1)[c]1ccccc1)C1(Cl)C(Cl)=C(Cl)C3(Cl)C1(Cl)Cl` (stereo not given), the survivor count (dose: 100.0 mg/kg/injection, schedule: Q01DX001 (ip), vehicle: carboxymethylcellulose (CMC)) is reported as 0 of 4, the survivor count (dose: 200.0 mg/kg/injection, schedule: Q01DX001 (ip), vehicle: carboxymethylcellulose (CMC)) is reported as 0 of 4 and the survivor count (dose: 400.0 mg/kg/injection, schedule: Q01DX001 (ip), vehicle: carboxymethylcellulose (CMC)) is reported as 0 of 4.
In the case of `CC(OC(=O)CF)C(C)OC(=O)CF` (stereo not given), the survivor count (dose: 5.0 mg/kg/injection, schedule: Q01DX001 (ip), vehicle: carboxymethylcellulose (CMC)) is reported as 0 of 4, the survivor count (dose: 10.0 mg/kg/injection, schedule: Q01DX001 (ip), vehicle: carboxymethylcellulose (CMC)) is reported as 1 of 4 and the survivor count (dose: 20.0 mg/kg/injection, schedule: Q01DX001 (ip), vehicle: carboxymethylcellulose (CMC)) is reported as 0 of 4. For the same compound, the survivor count (dose: 40.0 mg/kg/injection, schedule: Q01DX001 (ip), vehicle: carboxymethylcellulose (CMC)) was 0 of 4, the survivor count (dose: 50.0 mg/kg/injection, schedule: Q01DX001 (sc), vehicle: carboxymethylcellulose (CMC)) was 0 of 4 and the survivor count (dose: 80.0 mg/kg/injection, schedule: Q01DX001 (ip), vehicle: carboxymethylcellulose (CMC)) was 0 of 4. The survivor count (dose: 100.0 mg/kg/injection, schedule: Q01DX001 (sc), vehicle: carboxymethylcellulose (CMC)) was 0 of 4, the survivor count (dose: 200.0 mg/kg/injection, schedule: Q01DX001 (sc), vehicle: carboxymethylcellulose (CMC)) was 0 of 4 and the survivor count (dose: 400.0 mg/kg/injection, schedule: Q01DX001 (sc), vehicle: carboxymethylcellulose (CMC)) was 0 of 4.
In the case of `O=S(=O)(C#Cc1ccccc1)c1ccccc1`, the survivor count (dose: 200.0 mg/kg/injection, schedule: Q04DX002 (ip), vehicle: Klucel (hydroxypropylcellulose) (HPC)) is reported as 1 of 3 and the survivor count [8] is reported as 3 of 3.
`C[N+](C)(Cc1ccccc1)C1c2ccccc2-c2ccc(Br)cc21` (stereo not given) was tested, and the survivor count (dose: 100.0 mg/kg/injection, schedule: Q04DX003 (ip), vehicle: Klucel (hydroxypropylcellulose) (HPC)) was 0 of 6, the survivor count (dose: 200.0 mg/kg/injection, schedule: Q04DX003 (ip), vehicle: Klucel (hydroxypropylcellulose) (HPC)) was 0 of 6 and the survivor count (dose: 400.0 mg/kg/injection, schedule: Q04DX003 (ip), vehicle: Klucel (hydroxypropylcellulose) (HPC)) was 0 of 6.
For `c1cc[c]([Sn]([O][Sn]([c]2ccccc2)([c]2ccccc2)[c]2ccccc2)([c]2ccccc2)[c]2ccccc2)cc1`, the survivor count [1] was 3 of 6, the survivor count [2] was 0 of 6 and the survivor count [3] was 0 of 6. For the same compound, the survivor count [4] was 0 of 6.
With `O=C(NCCCCNC(=O)Nc1cccc(C2=NCCCN2)c1)Nc1cccc(C2=NCCCN2)c1` the survivor count (dose: 2.7 mg/kg/injection, schedule: Q01DX Z (ip), vehicle: carboxymethylcellulose (CMC)) was 0 of 6 and the survivor count (dose: 5.4 mg/kg/injection, schedule: Q01DX Z (ip), vehicle: carboxymethylcellulose (CMC)) was 0 of 6.
In the case of `CC(C)(CNC1CCCC1)OC(=O)c1ccccc1`, the survivor count [11] is reported as 1 of 6 and the survivor count [10] is reported as 0 of 6 (2×).
For `O=C(Nc1ccc(C2=NCCN2)cc1)c1ccc(N=Nc2ccc(C(=O)Nc3ccc(C4=NCCN4)cc3)cc2)cc1`, the survivor count (dose: 500.0 mg/kg/injection, schedule: Q01DX Z (ip), vehicle: water) was 3 of 6.
For `CCCCCCCCCCCCCCCC[N+](C)(CCO)Cc1ccccc1` (stereo not given), the survivor count (dose: 25.0 mg/kg/injection, schedule: Q04DX002 (ip), vehicle: saline with Tween-80) was 1 of 3, the survivor count (dose: 50.0 mg/kg/injection, schedule: Q04DX002 (ip), vehicle: saline with Tween-80) was 0 of 3 and the survivor count (dose: 100.0 mg/kg/injection, schedule: Q04DX002 (ip), vehicle: saline with Tween-80) was 0 of 3. The survivor count (dose: 200.0 mg/kg/injection, schedule: Q04DX002 (ip), vehicle: saline with Tween-80) was 0 of 3 and the survivor count (dose: 400.0 mg/kg/injection, schedule: Q04DX002 (ip), vehicle: saline with Tween-80) was 0 of 3.
In the case of `O=C(Nc1ccccc1)OCC(CN1CCCCC1)OC(=O)Nc1ccccc1` (stereo not given), the survivor count (dose: 50.0 mg/kg/injection, schedule: Q01DX009 (ip), vehicle: saline with Tween-80) is reported as 6 of 6 and the survivor count (dose: 400.0 mg/kg/injection, schedule: Q04DX003 (ip), vehicle: saline with Tween-80) is reported as 2 of 6.
With `CCC1(O)C(=O)OCc2c1c(Br)c(-c1ccccc1)n(C)c2=O` (stereo not given) the T/C (dose: 100.0 mg/kg/injection, schedule: Q01DX001 (ip), vehicle: saline with Tween-80) was 125 % of control.
In the case of `C[N+](C)(C)C12CCCCC1S(=O)(=O)C2` (stereo not given), the survivor count [11] is reported as 1 of 6 and the survivor count [10] is reported as 0 of 6.
With `CC(=O)OCC1OC(N2C(=O)/C(=C/c3ccc(Br)s3)SC2=S)C(OC(C)=O)C(OC(C)=O)C1OC(C)=O` (stereo not given) the survivor count (dose: 200.0 mg/kg/injection, schedule: Q01DX005 (ip), vehicle: other) was 3 of 6 and the survivor count (dose: 400.0 mg/kg/injection, schedule: Q01DX005 (ip), vehicle: other) was 0 of 6.
`O=C(NCCCCCCCCCCNC(=O)Nc1ccc(C2=NCC(O)CN2)cc1)Nc1ccc(C2=NCC(O)CN2)cc1` (stereo not given) was tested, and the survivor count (dose: 32.0 mg/kg/injection, schedule: Q01DX Z (ip), vehicle: water) was 0 of 6.
For `CN1N=Nc2cccc3cccc1c23`, the survivor count (dose: 200.0 mg/kg/injection, schedule: Q01DX009 (ip), vehicle: acetone) was 0 of 6 and the survivor count (dose: 400.0 mg/kg/injection, schedule: Q04DX003 (ip), vehicle: acetone) was 3 of 6.

— PubChem BioAssay AID248 (DTP/NCI, 2004)
